The values below come from patent publication US20090053198A1 (published 2009).

By UniProt entry, the sequences of proteins in these tests, tags left out. Where a name states a change or a piece, a line headed by the entry shows the natural chain unless it says otherwise. Chains listed by the source or under a name are the forms on record and can include a tag or linker.
Hematopoietic Cell E-/L-selectin Ligand (HCELL), HECA-452-reactive glycoform of CD44 (P16070, form named): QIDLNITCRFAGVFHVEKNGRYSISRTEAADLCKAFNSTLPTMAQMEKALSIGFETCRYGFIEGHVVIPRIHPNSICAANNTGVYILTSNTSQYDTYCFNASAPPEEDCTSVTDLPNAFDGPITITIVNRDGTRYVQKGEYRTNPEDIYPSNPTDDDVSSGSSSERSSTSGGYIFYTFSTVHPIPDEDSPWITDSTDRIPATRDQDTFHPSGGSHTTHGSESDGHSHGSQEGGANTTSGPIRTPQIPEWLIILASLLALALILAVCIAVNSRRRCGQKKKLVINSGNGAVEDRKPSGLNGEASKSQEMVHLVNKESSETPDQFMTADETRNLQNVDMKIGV

The target of the assay is Hematopoietic Cell E-/L-selectin Ligand (HCELL), HECA-452-reactive glycoform of CD44 (human) (UniProt P16070). Kind of assay: blot rolling assay: CHO-E perfused at 0.6 dyne/cm^2 over blotted ML-M membrane glycoproteins (˜100 kDa band); more interacting cells than on the ˜130 kDa band.

Results are given in words; binding and its absence hold for the method and conditions named. Some results given as binding are weak or reduced against the parent protein; the word gives no strength.

B1: human E-selectin on CHO-E cells (receptor, UniProt P16581 22-610, looked up)
chain: WSYNTSTEAMTYDEASAYCQQRYTHLVAIQNKEEIEYLNSILSYSPSYYWIGIRKVNNVWVWVGTQKPLTEEAKNWAPGEPNNRQKDEDCVEIYIKREKDVGMWNDERCSKKKLALCYTAACTNTSCSGHGECVETINNYTCKCDPGFSGLKCEQIVNCTALESPEHGSLVCSHPLGNFSYNSSCSISCDRGYLPSSMETMQCMSSGEWSAPIPACNVVECDAVTNPANGFVECFQNPGSFPWNTTCTFDCEEGFELMGAQSLQCTSSGNWDNEKPTCKAVTCRAVRQPQNGSVRCSHSPAGEFTFKSSCNFTCEEGFMLQGPAQVECTTQGQWTQQIPVCEAFQCTALSNPERGYMNCLPSASGSFRYGSSCEFSCEQGFVLKGSKRLQCGPTGEWDNEKPTCEAVRCDAVHQPPKGLVRCAHSPIGEFTYKSSCAFSCEEGFELHGSTQLECTSQGQWTEEVPSCQVVKCSSLAVPGKINMSCSGEPVFGTVCKFACPEGWTLNGSAARTCGATGHWSGLLPTCEAPTESNIPLVAGLSAAGLSLLTLAPFLLWLRKCLRKAKKFVPASSCQSLESDGSYQKPSYIL
As for B1, the binding entry was “binds”.
